Data from US20220348620A1.
Results are given in words; binding and its absence hold for the method and conditions named. Binding seen in cells or lysates may run through a third protein. Some binding calls cover weakened binding; strength is not graded here. Sequences can lack the tags named with a protein.

By UniProt entry, the sequences of proteins in these tests, tags left out. Residues count along the entry.
UniProt P21796, residues 2-283: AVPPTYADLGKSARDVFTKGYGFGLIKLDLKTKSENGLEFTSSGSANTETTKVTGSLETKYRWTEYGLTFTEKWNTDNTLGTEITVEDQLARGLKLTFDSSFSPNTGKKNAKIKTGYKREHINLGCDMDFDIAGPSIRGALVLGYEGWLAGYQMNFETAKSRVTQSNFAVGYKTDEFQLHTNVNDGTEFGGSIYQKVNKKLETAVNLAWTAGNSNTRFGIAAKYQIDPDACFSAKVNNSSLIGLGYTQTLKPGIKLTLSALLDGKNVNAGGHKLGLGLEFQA

What was measured:
[1] = biological target: VDAC1 (endogenous, in PC3 cell extracts) (human) (UniProt P21796); test: co-immunoprecipitation with anti-Flag from PC3 cells transfected with Myc-MFF1 and Flag-MFF4, Western blot
[2] = biological target: T1, MFF1, differentially tagged (HA- or Myc-tagged construct) (human) (UniProt Q9GZY8); test: as above
T1 sequence: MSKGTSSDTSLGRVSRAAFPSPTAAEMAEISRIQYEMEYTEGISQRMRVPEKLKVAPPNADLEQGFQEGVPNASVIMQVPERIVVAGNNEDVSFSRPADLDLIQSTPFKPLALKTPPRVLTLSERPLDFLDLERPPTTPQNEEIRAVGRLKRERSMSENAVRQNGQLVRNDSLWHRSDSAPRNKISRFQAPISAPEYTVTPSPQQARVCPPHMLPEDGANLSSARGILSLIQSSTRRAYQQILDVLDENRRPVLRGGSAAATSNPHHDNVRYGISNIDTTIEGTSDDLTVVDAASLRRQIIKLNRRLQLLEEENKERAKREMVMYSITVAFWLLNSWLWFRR

[3] = biological target: VDAC1 (endogenous, in PC3 cell extracts) (human) (UniProt P21796); test: co-immunoprecipitation with anti-Flag from PC3 cells transfected with HA-MFF1 and Flag-MFF4, Western blot
[4] = biological target: T1, MFF1, differentially tagged (HA- or Myc-tagged construct) (human); test: as above
[5] = biological target: VDAC1 (endogenous, in PC3 cell extracts) (human) (UniProt P21796); test: co-immunoprecipitation with anti-Flag from PC3 cells, Western blot
[6] = biological target: T2, hexokinase-II (HK-II), endogenous in PC3 cells (human) (UniProt P52789); test: as above
T2 sequence (looked up): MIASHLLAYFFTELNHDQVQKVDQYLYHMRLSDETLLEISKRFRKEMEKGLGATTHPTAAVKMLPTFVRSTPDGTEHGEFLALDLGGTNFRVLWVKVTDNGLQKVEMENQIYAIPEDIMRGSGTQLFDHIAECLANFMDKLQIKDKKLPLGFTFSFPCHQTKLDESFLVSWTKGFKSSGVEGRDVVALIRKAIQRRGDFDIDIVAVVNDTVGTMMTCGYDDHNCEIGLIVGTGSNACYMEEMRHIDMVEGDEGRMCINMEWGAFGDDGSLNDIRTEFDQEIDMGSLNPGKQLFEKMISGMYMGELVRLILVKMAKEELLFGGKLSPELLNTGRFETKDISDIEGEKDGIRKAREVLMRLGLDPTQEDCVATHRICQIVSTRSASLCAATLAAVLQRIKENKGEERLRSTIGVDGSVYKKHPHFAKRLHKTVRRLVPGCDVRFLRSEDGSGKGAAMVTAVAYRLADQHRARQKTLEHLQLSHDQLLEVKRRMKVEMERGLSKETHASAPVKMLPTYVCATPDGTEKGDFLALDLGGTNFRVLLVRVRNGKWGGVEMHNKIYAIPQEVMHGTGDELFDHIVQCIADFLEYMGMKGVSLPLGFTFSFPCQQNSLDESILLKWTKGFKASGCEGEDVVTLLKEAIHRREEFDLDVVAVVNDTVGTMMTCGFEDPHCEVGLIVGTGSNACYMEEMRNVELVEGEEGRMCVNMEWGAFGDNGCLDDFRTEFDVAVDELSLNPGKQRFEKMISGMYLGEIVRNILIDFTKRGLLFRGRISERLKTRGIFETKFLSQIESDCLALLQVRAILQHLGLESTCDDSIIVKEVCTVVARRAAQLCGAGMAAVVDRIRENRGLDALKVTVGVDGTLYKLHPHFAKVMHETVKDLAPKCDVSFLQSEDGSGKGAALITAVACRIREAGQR

[7] = biological target: T1, MFF1, differentially tagged (HA- or Myc-tagged construct) (human); test: co-immunoprecipitation with anti-Flag from PC3 cells transfected with HA-MFF1 and Flag-MFF2, Western blot
[8] = biological target: VDAC1 (endogenous, in PC3 cell extracts) (human) (UniProt P21796); test: co-immunoprecipitation, Western blot
[9] = biological target: VDAC1 (endogenous, in PC3 cell extracts) (human) (UniProt P21796); test: co-immunoprecipitation with anti-Flag from transfected PC3 cells, Western blot
[10] = biological target: T2, hexokinase-II (HK-II), endogenous in PC3 cells (human); test: as above
[11] = biological target: VDAC1 (endogenous, in PC3 cell extracts) (human) (UniProt P21796); test: co-immunoprecipitation with anti-Flag from PC3 cells transfected with Myc-MFF1 and Flag-MFF2, Western blot
[12] = biological target: T1, MFF1, differentially tagged (HA- or Myc-tagged construct) (human); test: as above

Measured: binding

B1: MFF4, differentially tagged (HA-, Myc- or Flag-tagged construct) (protein, human, UniProt Q9GZY8-4 1-218, looked up, not shown: small tags and cut ends)
chain: MAEISRIQYEMEYTEGISQRMRVPEKLKVAPPNADLEQGFQEGVPNASVIMQVPERIVVAGNNEDVSFSRPADLDLIQSTPFKPLALKTPPRVLTLSERPLDFLDLERPPTTPQNEEIRAVGRLKRERSMSENAVRQNGQLVRNDSLYGISNIDTTIEGTSDDLTVVDAASLRRQIIKLNRRLQLLEEENKERAKREMVMYSITVAFWLLNSWLWFRR
binds: [1] | [2] | [3] | [4]

B2: Flag-MFF2 (protein, human, UniProt Q9GZY8-2 1-291, looked up, not shown: small tags and cut ends)
chain: MAEISRIQYEMEYTEGISQRMRVPEKLKVAPPNADLEQGFQEGVPNASVIMQVPERIVVAGNNEDVSFSRPADLDLIQSTPFKPLALKTPPRVLTLSERPLDFLDLERPPTTPQNEEIRAVGRLKRERSMSENAVRQNGQLVRNDSLVTPSPQQARVCPPHMLPEDGANLSSARGILSLIQSSTRRAYQQILDVLDENRRPVLRGGSAAATSNPHHDNVRYGISNIDTTIEGTSDDLTVVDAASLRRQIIKLNRRLQLLEEENKERAKREMVMYSITVAFWLLNSWLWFRR
not listed: [1] | [2] | [3] | [4]
binds: all other assays above
